# Measurements from the supplement of paper PMC3047530.
# This is one part of the list. Repeats are few or missing, and single values can be far off.
# Test system: Geomyces destructans
# Assay: growth inhibition relative to DMSO control; higher = stronger growth inhibition
# Conditions: 10 µM; 15 °C; incubation time 10 days
row,Compound,growth inhibition [%]
1,NS(=O)(=O)c1cc2c(cc1C(F)(F)F)NCNS2(=O)=O,-1.44
2,N[C@@H](Cc1c[nH]c2ccccc12)C(=O)O,-20.7
3,O=C(/C=C/c1ccc(O)cc1)c1ccc(O)cc1O,13.3
4,Cc1c(NC(=O)c2cccnc2)c(=O)n(-c2ccccc2)n1C,-6.61
5,CS(=O)(=O)OCCCCOS(C)(=O)=O,5.34
6,Cc1cc(O)c(C=O)c(O)c1C(=O)O,-3.77
7,CC[C@@H]1C(=O)OC[C@@H]1Cc1cncn1C,-16.5
8,CN1C(=O)CC[C@H]1c1cccnc1,-9.93
9,CC(=O)N[C@H]1[C@H]([C@H](O)[C@H](O)CO)OC(O)(C(=O)O)C[C@@H]1O (mixture of isomers),-2.59
10,COc1cc(OC)c2c(c1Cl)O[C@@]1(C(=O)CC(=O)C[C@H]1C)C2=O,-8.99
11,CC(=O)OCC(=O)[C@@]12OC(C)(C)O[C@@H]1C[C@H]1[C@@H]3C[C@H](F)C4=CC(=O)C=C[C@]4(C)[C@@]3(F)[C@@H](O)C[C@@]12C,6.35
12,c1ccc2c(CC3=NCCN3)cccc2c1,-22.2
13,COC(=O)C1=CO[C@@H](C)[C@H]2CN3CCc4c([nH]c5ccccc45)[C@@H]3C[C@H]12,-3.64
14,"COC(=O)C[C@H]1C(C)(C)[C@H](O)[C@@H]2CC3=C4CC(O)O[C@@H](c5ccoc5)[C@@]4(C)CCC3[C@]1(C)C2=O (stereo partly drawn) [3,16-DIDEOXYMEXICANOLIDE-3alpha-DIOL]",-2.38
15,CCN(CC)CC(=O)Nc1c(C)cccc1C,-24.1
16,NS(=O)(=O)c1cc2c(cc1Cl)NC(C1CC3C=CC1C3)NS2(=O)=O (configuration not stated),-19.2
17,O=C1NS(=O)(=O)c2ccccc21,-0.46
18,CC(=O)CC(c1ccccc1)c1c(O)c2ccccc2oc1=O (configuration not stated),-32.7
19,O=c1oc2c(O)c(O)cc3c(=O)oc4c(O)c(O)cc1c4c23,-6.24
20,O=C(O[C@@H]1Cc2c(O)cc(O)cc2O[C@@H]1c1cc(O)c(=O)c2c(O)c(O)cc([C@H]3Oc4cc(O)cc(O)c4C[C@H]3OC(=O)c3cc(O)c(O)c(O)c3)c2c1)c1cc(O)c(O)c(O)c1,-8.19
21,CC(=O)O[C@H]1C[C@@]2(C)[C@H](c3ccoc3)OC(=O)[C@H]3O[C@]32[C@@]2(C)C1[C@]1(C)C(C[C@H]2OC(C)=O)C(C)(C)[C@H](OC(C)=O)C[C@@H]1OC(C)=O (stereo partly drawn) [11alpha-ACETOXYKHIVORIN],-24.2
22,CC(=O)NS(=O)(=O)c1ccc(N)cc1,-23.3
23,C=C1CC[C@@H]2[C@](C)(CO)[C@H](O)CC[C@@]2(C)[C@@H]1C/C=C1/C(=O)OC[C@H]1O,-11.4
24,OCc1ccccc1O[C@@H]1O[C@H](CO)[C@@H](O)[C@H](O)[C@H]1O,-12.3

row,Compound,growth inhibition [%]
1,C=CC1=C(C(=O)O)N2C(=O)[C@@H](NC(=O)/C(=N\O)c3csc(N)n3)[C@H]2SC1,-26.4
2,Nc1cc(N2CCCCC2)nc(N)[n+]1[O-],-10
3,CC(=O)OC1CC[C@@]2(C)C(CC[C@]3(C)C2CCC2C4CC(C)(C)CCC4(C(=O)O)CC[C@]23C)C1(C)C (some centres not stated),5.11
4,CC1=C(/C=C/C(C)=C/C=C/C(C)=C/CO)C(C)(C)CCC1,-6.7
5,O=C(O)c1ccccc1OP(=O)(O)O,-3.94
6,COC(=O)c1c(C)cc(OC(=O)c2c(C)cc(O)c(C=O)c2O)c(C)c1O,-4.31
7,C/C=C(/C(=C/C)c1ccc(O)cc1)c1ccc(O)cc1,-5.77
8,COc1ccc([C@@H](C)C(=O)c2ccc(O)cc2O)cc1,-7.91
9,CC1(C)OC(=O)C=CC2(C)C1CC(O)C1(C)C2CCC2(C)C(c3ccoc3)OC(=O)C3OC321 (configuration not stated),-18
10,NC(Cc1cc(I)c(Oc2ccc(O)c(I)c2)c(I)c1)C(=O)O (configuration not stated),-10.5
11,O=c1n(CCCN2CCN(c3cccc(Cl)c3)CC2)nc2ccccn12,-6.77
12,CC(=O)NCCCCCC(=O)O,-4.73
13,CC1/C(=N/O)C[C@@H]2C[C@H]1C2(C)C (some centres not stated),-5.08
14,CC1(C)S[C@@H]2[C@H](NC(=O)[C@H](N)c3ccccc3)C(=O)N2[C@H]1C(=O)O,-36.8
15,C=C[C@H]1CN2CC[C@H]1C[C@H]2[C@H](O)c1ccnc2ccc(OC)cc12,-21.5
16,O=C(/C=C/c1ccccc1)c1ccc(O[C@@H]2O[C@H](CO)[C@@H](O)[C@H](O)[C@H]2O)cc1O,1.36
17,CCCn1c(=O)c2[nH]c(C3CCCC3)nc2n(CCC)c1=O,8.2
18,Cc1nc2ccccn2c(=O)c1CCN1CCC(C(=O)c2ccc(F)cc2)CC1,-33.5
19,O=c1c(-c2ccccc2)coc2cc(O)cc(O)c12,8.73
20,NC(=O)c1cnccn1,-28.8
21,CC(=O)O[C@H]1C(=O)[C@@]2(C)[C@H]([C@H](OC(=O)c3ccccc3)[C@]3(O)C[C@H](OC(=O)[C@H](O)[C@@H](NC(=O)c4ccccc4)c4ccccc4)C(C)=C1C3(C)C)[C@]1(OC(C)=O)CO[C@@H]1C[C@@H]2O,-8.86
22,COc1ccc2c(c1)CC[C@@H]1[C@@H]2CC[C@]2(C)[C@@H](O)CC[C@@H]12,-14.8
23,COc1cc2c(cc1OC)[C@@H]1C(=O)c3c(O)cc4c(c3O[C@@H]1CO2)C=CC(C)(C)O4 [alpha-TOXICAROL],5.82

# A few values from the results shown:
# growth inhibition [%], O=C(/C=C/c1ccc(O)cc1)c1ccc(O)cc1O reads 13.3
# growth inhibition [%], CCN(CC)CC(=O)Nc1c(C)cccc1C reads -24.1
# growth inhibition [%], O=C(O)c1ccccc1OP(=O)(O)O reads -3.94
